Results: PubChem BioAssay AID651660 (Broad Institute, 2012)
The campaign covered roughly 1,900 compounds. About 15 (0.8%) were called active.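 Rule for the calls: active = every replicate shows at least 50% inhibition; inconclusive = mean inhibition at least 50% but some replicate below; inactive = the rest.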 The list shows a part of the results.

Chains of the proteins cited; added tags and fusions are not shown. Lines headed by an entry give the natural chain unless they say otherwise; changes in a name come on top.
UniProt P43351: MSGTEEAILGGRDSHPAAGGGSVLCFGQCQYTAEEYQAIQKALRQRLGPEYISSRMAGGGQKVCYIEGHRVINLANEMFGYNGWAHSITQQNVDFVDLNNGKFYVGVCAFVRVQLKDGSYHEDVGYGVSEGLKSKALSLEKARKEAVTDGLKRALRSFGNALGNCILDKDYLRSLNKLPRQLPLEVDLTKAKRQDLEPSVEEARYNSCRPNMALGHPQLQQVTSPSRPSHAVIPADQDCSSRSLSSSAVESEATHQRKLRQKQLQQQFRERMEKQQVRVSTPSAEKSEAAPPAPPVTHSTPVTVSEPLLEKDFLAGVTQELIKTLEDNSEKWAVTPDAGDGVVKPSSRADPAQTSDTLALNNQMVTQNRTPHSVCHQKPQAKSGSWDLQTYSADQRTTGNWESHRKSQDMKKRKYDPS

Target: DNA repair protein RAD52 homolog (Homo sapiens) (UniProt P43351)
Assay: inhibition of RAD52-mediated strand annealing – biochemical, FRET, single point, primary screen (AID 651660);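 note: 0% = median of neutral control wells and 100% = median of positive control wells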
Details: Recombinant RAD52 ssDNA annealing, FRET fluorescence, 30 min; at 18.7 µM; stronger effect = higher value

inhibition, inactive:
COc1ccc([C@@H]2Sc3ccccc3N(CCN(C)C)C(=O)[C@@H]2OC(C)=O)cc1 -15.9%
COC(=O)[C@@H](N)CS -24.3%
O=C(CS(=O)(=O)c1ccccc1)c1ccc2c(c1)OCCO2 -0.895%
Cc1cn([C@H]2C[C@H](N=[N+]=[N-])[C@@H](CO)O2)c(=O)[nH]c1=O 0.197%
CCCCC1C(=O)N(c2ccccc2)N(c2ccccc2)C1=O 2.56%
C#CCN1C(=O)C(O)(CC(=O)c2ccc(OC)c(OC)c2)c2ccccc21 (stereo not given) 5.35%
COc1ccc(S(=O)(=O)NC(Cc2cnc[nH]2)C(=O)O)cc1 (stereo not given) -2.2%
COc1ccccc1/C=C/C(=O)OCCN1CCOCC1 -22.5%
CC1=CC(=O)c2ccccc2C1=O -14.1%
CN(C)CCOc1ccccc1Cc1ccccc1 1.84%
CC1/C(=C\c2ccc(Cl)cc2)C(=O)C2CC1C2(C)C (stereo not given) 13.8%
CCOc1ccc(C(NC(C)=O)c2ccc(OC)c(OC)c2)cc1 (stereo not given) -1.19%
CC1(c2ccccc2)CC(C)(C)N2C(=O)C(=O)c3cccc1c32 (stereo not given) 1.28%
CCOc1ccc2nc(N/C(N)=N/S(C)(=O)=O)nc(C)c2c1 -3.39%
Cc1ccc(S(=O)(=O)NC(C(=O)Oc2cc3oc(=O)cc(C)c3cc2Cl)C(C)C)cc1 (stereo not given) 3.66%
Cc1[nH]c2ccccc2c1C(=O)C(=O)NCc1ccco1 1.74%
COCCN(CCOC)Cc1c(C)[nH]c2c(C)c(C)ccc2c1=O -2.9%
CCC(=O)Oc1ccc(C(=O)Nc2ccc([N+](=O)[O-])cc2)cc1 3.79%
Cc1cnc(N)c2c(=O)oc3ccccc3c12 -14.5%
CC(=O)OCC(=O)[C@@]12OC3(CCCC3)O[C@@H]1C[C@H]1[C@@H]3CCC4=CC(=O)C=C[C@]4(C)[C@@]3(F)[C@@H](O)C[C@@]12C 4.21%
CCn1c(C)cc2c(c1=O)C(c1ccccc1)C(C(=O)OC)=C(N)O2 (stereo not given) -14.3%
NC(=O)c1c(-c2ccccc2)oc2ccc(O)cc12 -0.68%
CCCC(=O)Nc1ccc(OCC(O)CNC(C)C)c(C(C)=O)c1 (stereo not given) -0.789%
COc1ccc(C2C3CCCCC3(O)CCN2C(=O)c2cccs2)cc1 (stereo not given) 3.36%
COc1ccc(C2=NOC(COc3ccc4c(C)cc(=O)oc4c3)C2)c(OC)c1 (stereo not given) -10%
O=c1c(-c2ccccc2)c(O)c2cccc3c2n1CCC3 -3.26%
CC1CCCC(C)N1NC(=O)c1ccc(Cl)c(S(N)(=O)=O)c1 (stereo not given) -9.73%
Nc1nnc(-c2cccc(Cl)c2Cl)c(N)n1 3.5%
C(=C/c1nccc2c1[nH]c1ccccc12)/c1ccc2c(c1)OCO2 38.5%
OCC1CCN(Cc2cn(Cc3ccccc3)nc2-c2cc3ccccc3o2)CC1 -15.4%
CC1(C)Cc2ccccc2-c2n[nH]c(=S)n21 -3.47%
COc1ccccc1CCn1cnc2c3cc(C)ccc3n(C)c2c1=O -2.79%
COc1ccc2c(c1)c(=O)oc1cc3occ(C(C)(C)C)c3cc12 -4.79%
CC(=O)O[C@]1(C(C)=O)CC[C@H]2[C@@H]3C=C(C)C4=CC(=O)CC[C@]4(C)[C@H]3CC[C@@]21C 7.57%
CC(=O)/C=C/c1ccc(C)o1 -8.38%
C=CCOC(=O)C1=C(C)NC(=O)NC1/C=C/c1ccccc1OC (stereo not given) -14.2%
O=C(/C=C/c1ccc2c(c1)OCCCO2)c1ccc2ccccc2c1O -4.43%
Nc1nnc(CSCc2ccc(Cl)cc2Cl)s1 -0.765%
CC(=O)N(C(C)=O)c1nc2nc(C)cc(C)n2n1 -3.11%
COc1cc2cc(C(=O)O)[nH]c2c(OC)c1OC -10.3%
Cc1oc2cc(O)ccc2c(=O)c1Oc1ccccc1Br 2.65%
O=C(CC(C(=O)O)c1c[nH]c2ccccc12)c1ccccc1 (stereo not given) -7.15%
CC(=O)NCCCCCCNC(C)=O -5.85%
CC(C)Cc1ccc(C(C)C(=O)Nc2ccc(O)cc2)cc1 (stereo not given) 6.93%
CC(C)OC(=O)CC1C(=O)NCCN1C(=S)NC(=O)c1ccccc1Cl (stereo not given) 1.57%

Arranged by molecular weight (falling): some entries from above
inhibition, inactive:
COc1ccc(C2=NOC(COc3ccc4c(C)cc(=O)oc4c3)C2)c(OC)c1 (stereo not given) -10%
CC(=O)O[C@]1(C(C)=O)CC[C@H]2[C@@H]3C=C(C)C4=CC(=O)CC[C@]4(C)[C@H]3CC[C@@]21C 7.57%
NC(=O)c1c(-c2ccccc2)oc2ccc(O)cc12 -0.68%
